Measured data: PubChem BioAssay AID1259424 (University of Nebraska Medical Center, 2018)

- Aim: 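Rank knockdowns across the genome by resemblance to the KSR1 depletion profile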 (primary screen)
- Cell system: human HCT116 colon cancer cells
- Reagent: siRNA pool against human genes, 50 nM
- Measurement: 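Six signature mRNAs by branched-DNA multiplex assay, scaled to two housekeeping genes and non-targeting median, log2; matched to mean KSR1 knockdown profile by Pearson correlation and euclidean distance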
- Direction: mean correlation with KSR1 profile: higher = expression change more like KSR1 knockdown
This is one part, drawn at random, of about 14,000 deposited reagents. 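Higher correlation or smaller distance means closer resemblance to KSR1 loss; control wells, including KSR1 knockdowns, recur on many plates.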 Further read-outs or replicates are left out here. The record does not give: the time to read-out.

Gene	mean correlation with KSR1 profile
PLEKHO2 (pleckstrin homology domain containing O2)	0.539
TRAIP (TRAF interacting protein)	0.0889
GOLGA1 (golgin A1)	0.171
PLAAT4 (phospholipase A and acyltransferase 4)	-0.185
MARK4 (microtubule affinity regulating kinase 4)	0.175
MTRF1L (mitochondrial translation release factor 1 like)	0.256
RHAG (Rh associated glycoprotein)	-0.669
AQP9 (aquaporin 9)	0.101
PCDH19 (protocadherin 19)	-0.172
SGSM3 (small G protein signaling modulator 3)	0.448
TGM3 (transglutaminase 3)	0.371
FOXF1 (forkhead box F1)	0.325
DDN (dendrin)	-0.122
SLC30A6	-0.628
HIC2 (HIC ZBTB transcriptional repressor 2)	0.56
SEMA6A (semaphorin 6A)	0.425
AK5 (adenylate kinase 5)	0.124
DHX33 (DEAH-box helicase 33)	0.0287
CARD19 (caspase recruitment domain family member 19)	0.373
SDHD (succinate dehydrogenase complex subunit D)	-0.0152
